Measurements published in patent US7618984B2, “Sulfonamide compound” (Asahi Kasei Pharma Corporation, priority 2005, dated 2009).
Some of these results come from one statement about several compounds together. For part of these data: At least one structure is not confirmed: it was looked up by name or label, or the drawing left a doubt.

Key:
[1] = system: phosphorylation of myosin regulatory light chain; assay: Inhibitory action on phosphorylation of myosin regulatory light chain (Test Example 1); type: cell-based; settings: human peripheral blood neutrophils, 25° C. for 5 minutes; read-out: IC50, compound concentration providing a phosphorylation inhibition ratio of 50% (myosin regulatory light chain)
Protocol: A volume of 50 to 100 ml of peripheral blood collected from healthy volunteers was centrifuged by using Mono-Poly separator solution (Dainippon Pharmaceutical) to prepare a neutrophil containing fraction. The neutrophils were washed with PBS(−) and resuspended in Hanks' Balanced Salt Solution (HBSS+, Gibco) to prepare a cell suspension (8×10^6/ml). The cell suspension was diluted to 5×10^6/ml, introduced into Eppendorf tubes in a volume of 0.4 ml each, then 0.1 ml each of solutions of a test compound at various concentrations were added to the suspension and allowed to react at 25° C. for 5 minutes. After the reaction, 0.1 ml of trichloroacetic acid solution was added to each reaction mixture, the reaction mixture was gently shaken and centrifuged at 12,000 rpm (4° C., 5 minutes), and the supernatant was removed. Subsequently, 3 μl of 1 M Tris solution was added to the residue, the mixture was further mixed with 50 μl of extraction buffer (8 M urea, 0.02% 2-mercaptoethanol, 0.002% bromophenol blue) and left stand at room temperature for 1 hour. Then, the reaction mixture was loaded on a spin column (0.45 μm, Millipore) to remove the insoluble solids and a sample buffer for SDS polyacrylamide gel electrophoresis (25 mM, Tris-HCl pH 6.8, 2.5% 2-mercaptoethanol, 2% sodium dodecylsulfate, 5% sucrose, 0.002% bromophenol blue as final concentrations) was added, and 10 μl of each sample was subjected to electrophoresis.
The gel after the electrophoresis was blotted on a nitrocellulose membrane (BioRad), blocked with 5% skim milk, and reacted successively with antibodies pLC1 (Sakurada K. et al, Am. J. Physiol., 274, C1563-C1572 (1998)), which specifically recognize the phosphorylated myosin regulatory light chain, and donkey anti-mouse IgG (Chemicon) conjugated with horseradish peroxidase. The band of the phosphorylated myosin regulatory light chain was detected on a film by using ECL Plus Kit (Amersham Pharmacia Biotech). This band was subjected to quantification using a densitometer. By using this value, the inhibitory ratio (%) for phosphorylation of the myosin regulatory light chain was calculated by using the following equation. Phosphorylation inhibition ratio(%)=1−(Band intensity of phosphorylated myosin regulatory light chain with addition of the test compound/Band intensity of phosphorylated myosin regulatory light chain without addition of the test compound)×100
Further, the phosphorylation inhibition ratio was calculated with changing the concentrations of the test compound, and a compound concentration providing an inhibition ratio of 50% was obtained as IC50.

[2] = system: rabbit normal intraocular pressure; assay: Intraocular pressure reducing action (Test Example 2); type: in vivo, Japanese white rabbit; settings: for intraocular pressure reducing degree (max ΔIOP / intraocular pressure value immediately before administration × 100): 3 mM aqueous solution, 50 μl to the left eye, measured after 2, 4 and 6 hours; for intraocular pressure reducing degree: same test with a test compound of 1 mM
Protocol: A Japanese white rabbit having a body weight of about 2 kg was placed in a positioner and naturalized for one week before the experiment. An opthalmologic local anesthesant (Benoxil) was administered to both eyes, and then intraocular pressure was measured by using a tonometer (Classic 30, Solan). A 3 mM aqueous solution of a test compound was administered in a volume of 50 μl to the left eye, and the right eye was not treated (control eye). The intraocular pressure values were measured for the left and right eyes immediately before, and 2, 4 and 6 hours after the administration of the aqueous solution of the test compound, and the difference of the measured values for the left and right eyes was considered an intraocular pressure reduction value of the test medicament at each measurement time. The largest difference of the values for the left and right eyes among the measured values at the measurement times (after 2, 4 and 6 hours) was considered the maximum intraocular pressure reduction value (max ΔIOP) of each test medicament. The intraocular pressure reducing degree representing the intraocular pressure reducing action of each test medicament was calculated according to the following formula. Since rabbits show significant daily variation of intraocular pressure, daily variation is added when change of intraocular pressure is measured over time, and the intraocular pressure reducing action may be overestimated. Therefore, we used this calculation method of intraocular pressure reduction value in order to minimize the influence of the variation. Intraocular pressure reducing degree (%)=(max ΔIOP/Intraocular pressure value immediately before administration)×100

Row | Structure (SMILES) | IC50 [1] [µM] | intraocular pressure reducing degree (max ΔIOP / intraocular pressure value immediately before administration × 100) [2] [%] | intraocular pressure reducing degree [2] [%]
1 | CN[C@H]1CCN(S(=O)(=O)c2cccc3cncc(Br)c23)C1 [Example 1-3] | < 10 | ≥ 20 | ≥ 20
2 | O=S(=O)(c1cccc2cncc(Br)c12)N1CC[C@H](NCc2ccccc2)C1 [Example 1-6] | < 10 |  | 
3 | O=S(=O)(c1cccc2cncc(Br)c12)N1CC[C@H](NCc2ccco2)C1 [Example 1-14] | < 10 |  | 
4 | O=S(=O)(c1cccc2cncc(Br)c12)N1CC[C@H](NC2CCOCC2)C1 [Example 1-30] |  | ≥ 20 | 
5 | NCCN[C@H]1CCN(S(=O)(=O)c2cccc3cncc(Br)c23)C1 [Example 1-31] | < 10 |  | 
6 | O=S(=O)(c1cccc2cncc(Br)c12)N1CC[C@H](NCc2ccc3c(c2)OCCO3)C1 [Example 1-38] | < 10 |  | 
7 | CN[C@H]1CCN(S(=O)(=O)c2cccc3cncc(C)c23)C1 [Example 8-3] | < 10 | ≥ 20 | ≥ 20
8 | CCN[C@H]1CCN(S(=O)(=O)c2cccc3cncc(C)c23)C1 [Example 8-4] | < 10 |  | 
9 | CCCN[C@H]1CCN(S(=O)(=O)c2cccc3cncc(C)c23)C1 [Example 8-5] | < 10 |  | 
10 | Cc1cncc2cccc(S(=O)(=O)N3CC[C@H](NCc4ccccc4)C3)c12 [Example 8-6] | < 10 |  | 
11 | Cc1cncc2cccc(S(=O)(=O)N3CC[C@H](NCC4CC4)C3)c12 [Example 8-26] | < 10 |  | 
12 | Cc1cncc2cccc(S(=O)(=O)N3CC[C@H](NC4CCC4)C3)c12 [Example 8-28] | < 10 |  | 
13 | Cc1cncc2cccc(S(=O)(=O)N3CC[C@H](NCCN)C3)c12 [Example 8-32] | < 10 |  | 
14 | C=CCN[C@H]1CCN(S(=O)(=O)c2cccc3cncc(C)c23)C1 [Example 8-34] | < 10 |  | 
15 | C#Cc1cncc2cccc(S(=O)(=O)N3CC[C@H](NC)C3)c12 [Example 10-3] | < 10 | ≥ 20 | ≥ 20
16 | C#Cc1cncc2cccc(S(=O)(=O)N3CC[C@H](NC4CCOCC4)C3)c12 [Example 10-31] |  | ≥ 20 | 
17 | CN[C@H]1CCN(S(=O)(=O)c2cccc3cncc(F)c23)C1 [Example 18-3] |  | ≥ 20 | 
18 | O=S(=O)(c1cccc2cncc(F)c12)N1CC[C@H](NC2CCOCC2)C1 [Example 18-31] |  | ≥ 20 | 
19 | CN[C@H]1CCN(S(=O)(=O)c2cccc3cncc(Cl)c23)C1 [Example 19-3] | < 10 | ≥ 20 | ≥ 20
20 | CCN[C@H]1CCN(S(=O)(=O)c2cccc3cncc(Cl)c23)C1 [Example 19-4] |  | ≥ 20 | 
21 | O=S(=O)(c1cccc2cncc(Cl)c12)N1CC[C@H](NC2CCOCC2)C1 [Example 19-31] |  | ≥ 20 | 
22 | N[C@H]1CCN(S(=O)(=O)c2cccc3cncc(C#CCO)c23)C1 [Example 28-1, (S)-3-Amino-1-[4-(2-hydroxymethyl)ethynyl-5-isoquinolinesulfonyl]pyrrolidine] |  | ≥ 20 | 
